Our source for the binding values is patent US20230236192A1.

Chains of the proteins cited; added tags and fusions are not shown. Lines headed by an entry give the natural chain unless they say otherwise; changes in a name come on top.
UniProt P05981: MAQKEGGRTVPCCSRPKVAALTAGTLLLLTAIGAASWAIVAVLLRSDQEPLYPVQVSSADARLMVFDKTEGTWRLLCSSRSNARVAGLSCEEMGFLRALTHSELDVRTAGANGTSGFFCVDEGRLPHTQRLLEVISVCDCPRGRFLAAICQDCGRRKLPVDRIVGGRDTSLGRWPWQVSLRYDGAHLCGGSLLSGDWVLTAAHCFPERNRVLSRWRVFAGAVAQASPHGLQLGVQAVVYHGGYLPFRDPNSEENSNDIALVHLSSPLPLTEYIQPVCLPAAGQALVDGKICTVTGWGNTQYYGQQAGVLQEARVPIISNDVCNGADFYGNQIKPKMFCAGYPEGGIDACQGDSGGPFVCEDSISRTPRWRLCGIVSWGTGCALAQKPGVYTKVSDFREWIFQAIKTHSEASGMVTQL

No constants are given. Whether binding was seen depends on the method and setting. Some binding calls cover weakened binding; strength is not graded here.

Assay [1] addresses activated recombinant hepsin (SEQ ID NO: 44 after activation with thrombin) (human) (UniProt P05981). Nature of the assay: sandwich ELISA. Background: An ELISA detects its analyte on a solid surface through an enzyme-linked reagent.
For assay [2], the target named is His-tagged recombinant hepsin protein having an amino acid sequence of SEQ ID NO: 43 (human) (UniProt P05981). Nature of the assay: sandwich ELISA (double-determinant immunoassay).

B1: mAb 5B8 (antibody, V domains shown)
VH: DVQLVESGGDLVQPGESRKLSCAASGFTFSSFGMHWVRQAPEKGLEWVAYISSGSSAIYYADTVKGRFTISRDNPKNTLFLHMTSLRSEDTAIYYCAGSNWDYFDYWGQGTTLTVSS
VL: DIVMSQSPSSLAVSAGEKVTMSCKSSQSLLNSRIRKNYLAWYQQKPGQSPKLLIYWASTRESGVPDRFTGSGSGTDFTLTISSVQAEDLAVYYCKQSYNLWTFGGGTKLEIK
On to B1, for which the binding entry in assay [1] and in assay [2] was “binds” throughout.
